Record: PubChem BioAssay AID1671195 (Yale University, 2021)
Screen: 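Genes whose knockdown alters LDL uptake in liver cancer cells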 (primary screen). Cell system: human Huh7 hepatoma cells. Reagents: siRNA pool against human genes, 18 nM. Duration: about 2 to 2.5 days of knockdown, then 8 h LDL uptake. Challenge: DiI-labelled LDL at 30 µg/ml for 8 h, in lipoprotein-deficient serum medium. Measured: 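Per-cell DiI-LDL intensity by automated imaging; well means scaled to the plate median and given as a robust z-score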. Scale: robust z-score: higher = more LDL uptake after knockdown. Hit rule: 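a gene counts as active if at least two replicate z-scores exceed ±2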.
This is a random part of about 22,000 deposited reagents. Over the whole deposit, about 1,510 (6.9%) got an active call. 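Active includes knockdowns raising or lowering LDL uptake; positive z-scores mean more uptake, negative mean less.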 A number with no mark means an inactive call. Reagents against one gene are numbered here.

no.	gene	reagent no.	robust z-score, replicate 1	robust z-score, replicate 2	robust z-score, replicate 3
1	SLC22A20P	1	-0.695	-0.263	-0.593
2	SLC22A20P	2	-0.458	-0.434	-0.855
3	PGM2L1	1	-0.73	-0.846	-1.14
4	SELENOW	1	0.184	0.378	-0.674
5	SLX4	1	-0.659	-0.813	-0.223
6	PXN	1	0.691	0.737	0.338
7	NLE1	1	-1.96	-0.815	-1.57
8	DNAJC19	1	1.49 (active)	2.78	2.34
9	STK32C	1	-0.559	-0.591	-1.13
10	LYRM7	1	1.36	1.74	0.868
11	DUOXA1	1	0.652	0.389	0.357
12	CLEC16A	1	-0.578	0.175	-0.274
13	SPRNP1	1	-0.734	-1.6	-1.83
14	LOC342600 (retired record)	1	-0.879	-1.06	-1.12
15	OLFML2A	1	0.625	0.337	0.697
16	DNASE1L2	1	1.36	1.74	2.21
17	MTDH	1	2.1	0.596	0.544
18	IL18RAP	1	0.534	-0.0942	0.164
19	GRPEL2	1	0.305	0.248	0.799
20	CCDC34	1	-0.0654	-0.122	0.0648
21	S100A14	1	0.759	0.65	0.331
22	CANT1	1	-1.27	-1.81	-0.99
23	TANGO2	1	0.245	-0.334	-0.642
24	CACNA2D1	1	2.4 (active)	1.58	1.96
25	LOC441469 (retired record)	1	-0.777	-1.73	-1.08
26	WDR49	1	-1.46	-1.24	-1.56
27	CBX5	1	-0.891	-1	-1.49
28	BCR	1	1.11	1.27	1.37
29	PTPN5	1	0.847	0.14	0.0965
30	CCR8	1	-0.738	0.244	-0.757
31	LOC389372 (retired record)	1	-0.156	0.202	-0.264
32	DTX1	1	-0.8	-0.688	-0.554
33	TIMM22	1	0.124	1.61	1.07
34	CST6	1	0.229	-0.325	-0.217
35	DRP2	1	-0.626	-0.15	-1.15
36	LINC00114	1	0.207	0.502	0.839
37	WDR89	1	2.45 (active)	3.96	3.13
38	ANKRD13C-DT	1	0.271	-0.595	-0.707
39	RNASEK	1	-0.982	-1.13	-0.829
40	LOC441831 (retired record)	1	-0.778	-0.0863	-0.232
41	FBXL2	1	1.77	1.43	0.02
42	ZP2	1	0.576	-1.23	-0.394
43	LOC440759 (retired record)	1	0.464	-0.393	-0.3
44	ZNF716	1	1.78	2.39	0.459
45	LINC00310	1	0.439	-0.000266	0.446
46	LGALSL	1	-0.0664	0.588	0.332
